# In all, about 1,900 compounds were measured (“excess over highest single agent (ExcessHSA) synergy score, 6x6 matrix”: median about -83, lowest 2% from about -370 on). The list shows a part of the results.
# System: NCI-H446
# Experiment: excess over highest single agent (ExcessHSA) synergy score, 6x6 matrix; higher = less synergy (more negative = stronger synergy)
# Conditions: 72 h; CellTiter-Glo viability
row,SMILES,excess over highest single agent
1,O=C(c1ccc(F)cc1)C1CCN(CCn2c(=O)[nH]c3ccccc3c2=O)CC1 + Cc1sc2c(c1C)C(c1ccc(Cl)cc1)=N[C@@H](CC(=O)OC(C)(C)C)c1nnc(C)n1-2 [NCGC00250412-19],-13.7
2,C[C@H]1[C@H](C)CC[C@]2(C(=O)O)CC[C@]3(C)C(=CC[C@@H]4[C@@]5(C)CC[C@H](O)C(C)(C)[C@@H]5CC[C@]43C)[C@H]12 + Cc1sc2c(c1C)C(c1ccc(Cl)cc1)=N[C@@H](CC(=O)OC(C)(C)C)c1nnc(C)n1-2 [NCGC00250412-19],-67.1
3,O=C(NCCCCN1CCOCC1)c1cc2ccccc2o1 + Cc1sc2c(c1C)C(c1ccc(Cl)cc1)=N[C@@H](CC(=O)OC(C)(C)C)c1nnc(C)n1-2 [NCGC00250412-19],-147
4,Oc1ccc(-c2ccc(-c3cc(Nc4cccc(CNC5CC5)c4)n[nH]3)cc2)c(O)c1 + Cc1sc2c(c1C)C(c1ccc(Cl)cc1)=N[C@@H](CC(=O)OC(C)(C)C)c1nnc(C)n1-2 [NCGC00250412-19],79.8
5,Nc1nc2c(ncn2COC(CO)CO)c(=O)[nH]1 + Cc1sc2c(c1C)C(c1ccc(Cl)cc1)=N[C@@H](CC(=O)OC(C)(C)C)c1nnc(C)n1-2 [NCGC00250412-19],-72.2
6,CC(NC(C)(C)C)C(=O)c1cccc(Cl)c1 (stereo not drawn) + Cc1sc2c(c1C)C(c1ccc(Cl)cc1)=N[C@@H](CC(=O)OC(C)(C)C)c1nnc(C)n1-2 [NCGC00250412-19],19.5
7,Cc1csc(-c2nnc(Nc3ccc(Oc4ncccc4-c4ccnc(N)n4)cc3)c3ccccc23)c1 + Cc1sc2c(c1C)C(c1ccc(Cl)cc1)=N[C@@H](CC(=O)OC(C)(C)C)c1nnc(C)n1-2 [NCGC00250412-19],-193
8,CN(C)C(=N)NC(=N)N + Cc1sc2c(c1C)C(c1ccc(Cl)cc1)=N[C@@H](CC(=O)OC(C)(C)C)c1nnc(C)n1-2 [NCGC00250412-19],-158
9,COc1c(C)cnc(Cn2cnc3c(Cl)nc(N)nc32)c1C + Cc1sc2c(c1C)C(c1ccc(Cl)cc1)=N[C@@H](CC(=O)OC(C)(C)C)c1nnc(C)n1-2 [NCGC00250412-19],-371
10,COc1ccc2c(Oc3ccc(NC(=O)c4c(C)n(CC(C)(C)O)n(-c5ccccc5)c4=O)nc3)ccnc2c1 + Cc1sc2c(c1C)C(c1ccc(Cl)cc1)=N[C@@H](CC(=O)OC(C)(C)C)c1nnc(C)n1-2 [NCGC00250412-19],-44.8
11,c1ccc2c(CCNc3ccc(Nc4ccncc4)cc3)c[nH]c2c1 + Cc1sc2c(c1C)C(c1ccc(Cl)cc1)=N[C@@H](CC(=O)OC(C)(C)C)c1nnc(C)n1-2 [NCGC00250412-19],-76.1
12,NCCCCCC(=O)O + Cc1sc2c(c1C)C(c1ccc(Cl)cc1)=N[C@@H](CC(=O)OC(C)(C)C)c1nnc(C)n1-2 [NCGC00250412-19],-73.9
13,CC1=C(C)C(=O)C(C(CCCCCC(=O)O)c2ccccc2)=C(C)C1=O (stereo not drawn) + Cc1sc2c(c1C)C(c1ccc(Cl)cc1)=N[C@@H](CC(=O)OC(C)(C)C)c1nnc(C)n1-2 [NCGC00250412-19],-240
14,Cc1nc2c([nH]1)-c1ccccc1N(C(=O)c1ccc(NC(=O)c3ccccc3-c3ccccc3)cc1)CC2 + Cc1sc2c(c1C)C(c1ccc(Cl)cc1)=N[C@@H](CC(=O)OC(C)(C)C)c1nnc(C)n1-2 [NCGC00250412-19],-102
15,CC=CC(=O)N(CC)c1ccccc1C + Cc1sc2c(c1C)C(c1ccc(Cl)cc1)=N[C@@H](CC(=O)OC(C)(C)C)c1nnc(C)n1-2 [NCGC00250412-19],-84.3
16,O=C(C1CC1)N1CC[C@@H](Cn2c(-c3ccc(-c4ccc5occc5c4)cc3)nc3cnccc32)C1 + Cc1sc2c(c1C)C(c1ccc(Cl)cc1)=N[C@@H](CC(=O)OC(C)(C)C)c1nnc(C)n1-2 [NCGC00250412-19],-33.3
17,Cc1cnc(Nc2ccc(OCCN3CCCC3)cc2)nc1Nc1cccc(S(=O)(=O)NC(C)(C)C)c1 + Cc1sc2c(c1C)C(c1ccc(Cl)cc1)=N[C@@H](CC(=O)OC(C)(C)C)c1nnc(C)n1-2 [NCGC00250412-19],-181
18,COc1ccc(-c2nc(N3CCOCC3)c3sc(CN(C)c4ncc(C(=O)NO)cn4)cc3n2)cn1 + Cc1sc2c(c1C)C(c1ccc(Cl)cc1)=N[C@@H](CC(=O)OC(C)(C)C)c1nnc(C)n1-2 [NCGC00250412-19],-105
19,C[C@]12C=CC(=O)N[C@@H]1CC[C@@H]1[C@@H]2CC[C@]2(C)[C@@H](C(=O)Nc3cc(C(F)(F)F)ccc3C(F)(F)F)CC[C@@H]12 + Cc1sc2c(c1C)C(c1ccc(Cl)cc1)=N[C@@H](CC(=O)OC(C)(C)C)c1nnc(C)n1-2 [NCGC00250412-19],-149

# 2 entries from above, set out differently.
row	SMILES	excess over highest single agent
6	CC(NC(C)(C)C)C(=O)c1cccc(Cl)c1 (stereo not drawn) + Cc1sc2c(c1C)C(c1ccc(Cl)cc1)=N[C@@H](CC(=O)OC(C)(C)C)c1nnc(C)n1-2 [NCGC00250412-19]	19.5
7	Cc1csc(-c2nnc(Nc3ccc(Oc4ncccc4-c4ccnc(N)n4)cc3)c3ccccc23)c1 + Cc1sc2c(c1C)C(c1ccc(Cl)cc1)=N[C@@H](CC(=O)OC(C)(C)C)c1nnc(C)n1-2 [NCGC00250412-19]	-193

# (further entries)

row,SMILES,excess over highest single agent
1,CN(C)[C@@H]1C(=O)C(C(N)=O)=C(O)[C@@]2(O)C(=O)C3=C(O)c4c(O)cccc4[C@@](C)(O)[C@H]3C[C@@H]12 + Cc1sc2c(c1C)C(c1ccc(Cl)cc1)=N[C@@H](CC(=O)OC(C)(C)C)c1nnc(C)n1-2 [NCGC00250412-19],40.3
2,CN(C)S(=O)(=O)c1ccc2c(c1)/C(=C/c1cc3c([nH]1)CCCC3)C(=O)N2 + Cc1sc2c(c1C)C(c1ccc(Cl)cc1)=N[C@@H](CC(=O)OC(C)(C)C)c1nnc(C)n1-2 [NCGC00250412-19],-179
3,Clc1cccc(Cl)c1NC1=NCCN1 + Cc1sc2c(c1C)C(c1ccc(Cl)cc1)=N[C@@H](CC(=O)OC(C)(C)C)c1nnc(C)n1-2 [NCGC00250412-19],-13.3
4,CO[C@H]1/C=C/O[C@@]2(C)Oc3c(C)c(O)c4c(O)c(c5c(nc6cc(C)ccn65)c4c3C2=O)NC(=O)/C(C)=C\C=C\[C@H](C)[C@H](O)[C@@H](C)[C@@H](O)[C@@H](C)[C@H](OC(C)=O)[C@@H]1C + Cc1sc2c(c1C)C(c1ccc(Cl)cc1)=N[C@@H](CC(=O)OC(C)(C)C)c1nnc(C)n1-2 [NCGC00250412-19],-138
5,O=P(O)(O)C(O)(Cn1ccnc1)P(=O)(O)O + Cc1sc2c(c1C)C(c1ccc(Cl)cc1)=N[C@@H](CC(=O)OC(C)(C)C)c1nnc(C)n1-2 [NCGC00250412-19],-67.9
6,Cc1cc(C(C)(C)C)cc(C)c1CC1=NCCN1 + Cc1sc2c(c1C)C(c1ccc(Cl)cc1)=N[C@@H](CC(=O)OC(C)(C)C)c1nnc(C)n1-2 [NCGC00250412-19],-68.7
7,CC(C)(CO)[C@@H](O)C(=O)NCCC(=O)O + Cc1sc2c(c1C)C(c1ccc(Cl)cc1)=N[C@@H](CC(=O)OC(C)(C)C)c1nnc(C)n1-2 [NCGC00250412-19],-84.9
8,COc1ccc2c3n(c(=NC(=O)c4cccnc4)nc2c1OC)CCN3 + Cc1sc2c(c1C)C(c1ccc(Cl)cc1)=N[C@@H](CC(=O)OC(C)(C)C)c1nnc(C)n1-2 [NCGC00250412-19],-292
9,CC#CCn1c(N2CCC[C@@H](N)C2)nc2c1c(=O)n(Cc1nc(C)c3ccccc3n1)c(=O)n2C + Cc1sc2c(c1C)C(c1ccc(Cl)cc1)=N[C@@H](CC(=O)OC(C)(C)C)c1nnc(C)n1-2 [NCGC00250412-19],-192
10,CNC(=O)c1ccc(N2C(=S)N(c3ccc(C#N)c(C(F)(F)F)c3)C(=O)C2(C)C)cc1F + Cc1sc2c(c1C)C(c1ccc(Cl)cc1)=N[C@@H](CC(=O)OC(C)(C)C)c1nnc(C)n1-2 [NCGC00250412-19],-276
11,CN1[C@@H]2C[C@@H](OC(=O)[C@H](CO)c3ccccc3)C[C@H]1[C@@H]1O[C@@H]12 + Cc1sc2c(c1C)C(c1ccc(Cl)cc1)=N[C@@H](CC(=O)OC(C)(C)C)c1nnc(C)n1-2 [NCGC00250412-19],-11.6
12,COc1cc(OC)c(NC(=O)Nc2cc(C)on2)cc1Cl + Cc1sc2c(c1C)C(c1ccc(Cl)cc1)=N[C@@H](CC(=O)OC(C)(C)C)c1nnc(C)n1-2 [NCGC00250412-19],-142
13,N#C/C(=C(/N)Sc1ccc(N)cc1)c1ccccc1C(F)(F)F + Cc1sc2c(c1C)C(c1ccc(Cl)cc1)=N[C@@H](CC(=O)OC(C)(C)C)c1nnc(C)n1-2 [NCGC00250412-19],-146
14,COc1cc2nc(N3CCN(C(=O)C4COc5ccccc5O4)CC3)nc(N)c2cc1OC (stereo not drawn) + Cc1sc2c(c1C)C(c1ccc(Cl)cc1)=N[C@@H](CC(=O)OC(C)(C)C)c1nnc(C)n1-2 [NCGC00250412-19],68.4
15,O=c1c(O)c(-c2ccc(O)cc2)oc2cc(O)cc(O)c12 + Cc1sc2c(c1C)C(c1ccc(Cl)cc1)=N[C@@H](CC(=O)OC(C)(C)C)c1nnc(C)n1-2 [NCGC00250412-19],-136
16,FC(F)(F)c1ccc(Nc2nc3ccc(Oc4ccnc(-c5ncc(C(F)(F)F)[nH]5)c4)cc3[nH]2)cc1 + Cc1sc2c(c1C)C(c1ccc(Cl)cc1)=N[C@@H](CC(=O)OC(C)(C)C)c1nnc(C)n1-2 [NCGC00250412-19],-7.92
17,CC(C)(C)c1cc(NC(=O)Nc2ccc(-c3cn4c(n3)sc3cc(OCCN5CCOCC5)ccc34)cc2)no1 + Cc1sc2c(c1C)C(c1ccc(Cl)cc1)=N[C@@H](CC(=O)OC(C)(C)C)c1nnc(C)n1-2 [NCGC00250412-19],-142
18,CCOc1ccccc1N=Nc1c(C)[nH]n(-c2nc(-c3ccccc3)cs2)c1=O + Cc1sc2c(c1C)C(c1ccc(Cl)cc1)=N[C@@H](CC(=O)OC(C)(C)C)c1nnc(C)n1-2 [NCGC00250412-19],-77.9
19,CC1(C)Cc2c(-c3ccccc3)c(-c3ccc(Cl)cc3)c(CC(=O)O)n2C1 + Cc1sc2c(c1C)C(c1ccc(Cl)cc1)=N[C@@H](CC(=O)OC(C)(C)C)c1nnc(C)n1-2 [NCGC00250412-19],-140

# From the supplement of paper PMC10077471
